Test results reported in patent publication US20140274688A1, “MOLECULES HAVING CERTAIN PESTICIDAL UTILITIES, AND INTERMEDIATES, COMPOSITIONS, AND PROCESSES RELATED THERETO” (DOW AGROSCIENCES LLC, priority 2013, published 2014).
Some results were stated once for a whole list of compounds, not compound by compound. Some ranges recur; such a range may be that of the whole group of compounds.

test system: Yellow Fever Mosquito "YFM" (Aedes aegypti); details: Table ABC (P), rating of mortality

| Compound | YFM |
| --- | --- |
| CC(C)c1cc(F)ccc1N1C(=O)CS/C1=N\C(=O)NCCCCc1ccc(-c2ncn(-c3ccc(OC(F)(F)F)cc3)n2)cc1 [P155, (Z)-1-(3-(4-fluoro-2-isopropylphenyl)-4-oxothiazolidin-2-ylidene)-3-(4-(4-(1-(4-(trifluoromethoxy)phenyl)-1H-1,2,4-triazol-3-yl)phenyl)butyl)urea] | A (80-100) |
| CCCc1ccc(C)cc1N1C(=O)CS/C1=N\C(=O)NCCCCc1ccc(-c2ncn(-c3ccc(OC(F)(F)F)cc3)n2)cc1 [P151, (Z)-1-(3-(5-methyl-2-propylphenyl)-4-oxothiazolidin-2-ylidene)-3-(4-(4-(1-(4-(trifluoromethoxy)phenyl)-1H-1,2,4-triazol-3-yl)phenyl)butyl)urea] | A (80-100) |
| COc1ccc(C(C)C)c(N2C(=O)CS/C2=N\C(=O)NCCCCc2ccc(-c3ncn(-c4ccc(OC(F)(F)F)cc4)n3)cc2)c1 [P156, (Z)-1-(3-(2-isopropyl-5-methoxyphenyl)-4-oxothiazolidin-2-ylidene)-3-(4-(4-(1-(4-(trifluoromethoxy)phenyl)-1H-1,2,4-triazol-3-yl)phenyl)butyl)urea] | A (80-100) |
| Cc1cccc(C)c1N1C(=O)CS/C1=N\C(=O)NCCCCc1ccc(-c2ncn(-c3ccc(OC(F)(F)F)cc3)n2)cc1 [P152, (Z)-1-(3-(2,6-dimethylphenyl)-4-oxothiazolidin-2-ylidene)-3-(4-(4-(1-(4-(trifluoromethoxy)phenyl)-1H-1,2,4-triazol-3-yl)phenyl)butyl)urea] | A (80-100) |
| Cc1ccc(C(C)C)c(N2C(=O)CS/C2=N\C(=O)NCCCCc2ccc(-c3ncn(-c4ccc(OC(F)(F)F)cc4)n3)cc2)c1 [P150, (Z)-1-(3-(2-isopropyl-5-methylphenyl)-4-oxothiazolidin-2-ylidene)-3-(4-(4-(1-(4-(trifluoromethoxy)phenyl)-1H-1,2,4-triazol-3-yl)phenyl)butyl)urea] | A (80-100) |
| Cc1ccc(C(C)C)c(N2C(=O)CS/C2=N\C(=O)NC(C)C(C)c2ccc(-c3ncn(-c4ccc(OC(F)(F)F)cc4)n3)cc2)c1 (centres unmarked) [P66, (Z)-1-(3-(2-isopropyl-5-methylphenyl)-4-oxothiazolidin-2-ylidene)-3-(3-(4-(1-(4-(trifluoromethoxy)phenyl)-1H-1,2,4-triazol-3-yl)phenyl)butan-2-yl)urea] | A (80-100) |
| CCc1ccccc1N1C(=O)CS/C1=N\C(=O)NCCCCc1ccc(-c2ncn(-c3ccc(OC(F)(F)F)cc3)n2)cc1 [P145, (Z)-1-(3-(2-ethylphenyl)-4-oxothiazolidin-2-ylidene)-3-(4-(4-(1-(4-(trifluoromethoxy)phenyl)-1H-1,2,4-triazol-3-yl)phenyl)butyl)urea] | A (80-100) |
| CC(C)c1ccccc1N1C(=O)CS/C1=N\C(=O)NCCCCc1ccc(-c2ncn(-c3ccc(OC(F)(F)F)cc3)n2)cc1 [P146, (Z)-1-(3-(2-isopropylphenyl)-4-oxothiazolidin-2-ylidene)-3-(4-(4-(1-(4-(trifluoromethoxy)phenyl)-1H-1,2,4-triazol-3-yl)phenyl)butyl)urea] | A (80-100) |
